Drawing on publication PMC4918316, this text covers binding for three molecules.

No constants are given. Whether binding was seen depends on the method and setting. For some of these results: Binding seen in cells or lysates may run through a third protein. For some of these results: Binding calls can cover weak binding; strength is not graded here. For some of these results: Where a sequence is shown, tags or fusion partners need not be part of it.

Experiment [1] deals with 3FLAG/HA-tagged Drosophila KANSL1 (Drosophila melanogaster). The experiment can be described thus: pull-down; recombinant 3FLAG/HA protein at 100 nM incubated in CSF-arrested Xenopus egg extract with 10 uM RanGTPQ69L, retrieved on Protein A Dynabeads coupled with anti-HA antibodies; western blot of the beads; only the target purified. On the technique in general: Immunoblotting shows a protein as a band on a membrane.

The target of experiment [2] is 3FLAG/HA-tagged Drosophila KANSL3 (Drosophila melanogaster). The description is as above.
Experiment [3] concerns the target Drosophila KANSL3 tagged with 3FLAG (Drosophila). The experiment can be described thus: pull-down; all seven members co-expressed in SF21 cells, only KANSL3 tagged (3FLAG); cell extract incubated with FLAG beads; done separately for the human and the Drosophila complex.
Experiment [4] concerns the target taxol-stabilized microtubules (bovine tubulin) (bovine). The experiment can be described thus: co-sedimentation; 3 uM taxol-stabilized microtubules with 250 nM recombinant protein, 30 min at 4 °C; pelleted through a 30% glycerol cushion at 100,000g; western blot of supernatant and pellet; both purified.

B1: MCAK of Xenopus egg extract (protein, UniProt Q91636 1-730)
chain: MERLVATRLVTGLAVKIMRSNGVIHNANITSVNMDRSSVNVEWKEGEANKGKEISFADVISVNPELLDAVLAPTNVKENMPPQRNVSSQNHKRKTISKIPAPKEVAAKNSLLSESGAQSVLRERSTRMTAIHETLPYENEMEAESTPLPIQQNSVQARSRSTKVSIAEEPRLQTRISEIVEESLPSGRNNQGRRKSNIVKEMEKMKNKREEQRAQNYERRMKRAQDYDTSVPNWEFGKMIKEFRATMDCHRISMADPAEEHRICVCVRKRPLNKQELSKKEIDIISVPSKNIVLVHEPKLKVDLTKYLENQAFRFDFSFDETATNEVVYRFTARPLVQSIFEGGKATCFAYGQTGSGKTHTMGGDFSGKSQNVSKGVYAFASRDVFLLLDQPRYKHLDLDVFVTFFEIYNGKVFDLLNKKTKLRVLEDAKQEVQVVGLLEKQVISADDVFKMIEIGSACRTSGQTFANTSSSRSHACLQIILRRGSKLHGKFSLVDLAGNERGVDTASADRITRMEGAEINRSLLALKECIRALGQNKSHTPFRESKLTQILRDSFIGENSRTCMIAMLSPGFNSCEYTLNTLRYADRVKELSPQNAETNDDNLQMEDSGGSHASIEGLQLQDDFLLKDEELSTHNSFQDALNRVGELEDKAVDELRELVQKEPEWTNLLQMTEQPDYDLENFVMQAEYLIQERSKVLIALGDSINSLRLALQVEEQASKQISKKKRSNK
As to B1, the binding entry in experiment [1] and in experiment [2] was “binds” each time.

B2: Drosophila MOF, untagged (protein, UniProt O02193 1-827)
chain: MSEAELEQTPSAGHVQEQPIEEEHEPEQEPTDAYTIGGPPRTPVEDAAAELSASLDVSGSDQSAEQSLDLSGVQAEAAAESEPPAKRQHRDISPISEDSTPASSTSTSSTRSSSSSRYDDVSEAEEAPPEPEPEQPQQQQQEEKKEDGQDQVKSPGPVELEAQEPAQPQKQKEVVDQEIETEDEPSSDTVICVADINPYGSGSNIDDFVMDPDAPPNAIITEVVTIPAPLHLKGTQQLGLPLAAPPPPPPPPAAEQVPETPASPTDDGEEPPAVYLSPYIRSRYMQESTPGLPTRLAPRDPRQRNMPPPAVVLPIQTVLSANVEAISDDSSETSSSDDDEEEEEDEDDALTMEHDNTSRETVITTGDPLMQKIDISENPDKIYFIRREDGTVHRGQVLQSRTTENAAAPDEYYVHYVGLNRRLDGWVGRHRISDNADDLGGITVLPAPPLAPDQPSTSREMLAQQAAAAAAASSERQKRAANKDYYLSYCENSRYDYSDRKMTRYQKRRYDEINHVQKSHAELTATQAALEKEHESITKIKYIDKLQFGNYEIDTWYFSPFPEEYGKARTLYVCEYCLKYMRFRSSYAYHLHECDRRRPPGREIYRKGNISIYEVNGKEESLYCQLLCLMAKLFLDHKVLYFDMDPFLFYILCETDKEGSHIVGYFSKEKKSLENYNVACILVLPPHQRKGFGKLLIAFSYELSRKEGVIGSPEKPLSDLGRLSYRSYWAYTLLELMKTRCAPEQITIKELSEMSGITHDDIIYTLQSMKMIKYWKGQNVICVTSKTIQDHLQLPQFKQPKLTIDTDYLVWSPQTAAAVVRAPGNSG
Take B2: in experiment [3], the binding result is given as “binds”.

B3: 3FLAG/HA-tagged Drosophila males absent on the first (MOF) (protein, UniProt O02193 1-827)
chain: MSEAELEQTPSAGHVQEQPIEEEHEPEQEPTDAYTIGGPPRTPVEDAAAELSASLDVSGSDQSAEQSLDLSGVQAEAAAESEPPAKRQHRDISPISEDSTPASSTSTSSTRSSSSSRYDDVSEAEEAPPEPEPEQPQQQQQEEKKEDGQDQVKSPGPVELEAQEPAQPQKQKEVVDQEIETEDEPSSDTVICVADINPYGSGSNIDDFVMDPDAPPNAIITEVVTIPAPLHLKGTQQLGLPLAAPPPPPPPPAAEQVPETPASPTDDGEEPPAVYLSPYIRSRYMQESTPGLPTRLAPRDPRQRNMPPPAVVLPIQTVLSANVEAISDDSSETSSSDDDEEEEEDEDDALTMEHDNTSRETVITTGDPLMQKIDISENPDKIYFIRREDGTVHRGQVLQSRTTENAAAPDEYYVHYVGLNRRLDGWVGRHRISDNADDLGGITVLPAPPLAPDQPSTSREMLAQQAAAAAAASSERQKRAANKDYYLSYCENSRYDYSDRKMTRYQKRRYDEINHVQKSHAELTATQAALEKEHESITKIKYIDKLQFGNYEIDTWYFSPFPEEYGKARTLYVCEYCLKYMRFRSSYAYHLHECDRRRPPGREIYRKGNISIYEVNGKEESLYCQLLCLMAKLFLDHKVLYFDMDPFLFYILCETDKEGSHIVGYFSKEKKSLENYNVACILVLPPHQRKGFGKLLIAFSYELSRKEGVIGSPEKPLSDLGRLSYRSYWAYTLLELMKTRCAPEQITIKELSEMSGITHDDIIYTLQSMKMIKYWKGQNVICVTSKTIQDHLQLPQFKQPKLTIDTDYLVWSPQTAAAVVRAPGNSG
B3: the binding result in experiment [4] was “no binding (tested: 250 nM)”.
